According to patent US9873880B2, “Engineering microorganisms” (DSM NUTRITIONAL PRODUCTS AG, priority 2013, dated 2018):
At least one compound was matched to its structure with a doubt left.

Test system: Thraustochytrium sp. ONC-T18
Experiment: Effects of antibiotics on the growth of ONC-T18 on ONC-T18-GM0 agar plates
Format: cell-based
Details: 25° C.
Description: Thraustochytrium sp. ONC-T18 was grown on agar plates (20 g agar per liter ONC-T18-GM0). One loop of inoculum of ONC-T18 was inoculated into 50 mL of liquid ONC-T18-GM0, and the culture was incubated in a shaker incubator at 25° C. at 250 rpm for 36 hours. Half a milliliter of the culture was transferred into a 1.5 mL tube and vortexed at full speed for 30 seconds to break down cell clusters, then diluted in 50 mL sterilized water. One hundred microliters of the resulting solution was spread onto each ONC-T18-GM0 medium plate. Each plate contained one of various antibiotics at one of various concentrations. Plates were incubated at 25° C. and emergence and development of colonies were observed daily.

Cc1c(N)nc([C@H](CC(N)=O)NC[C@H](N)C(N)=O)nc1C(=O)N[C@H](C(=O)N[C@H](C)[C@@H](O)[C@H](C)C(=O)N[C@H](C(=O)NCCC1=N[C@@H](c2nc(C(=O)NCCCCN=C(N)N)cs2)CS1)[C@@H](C)O)[C@@H](O[C@@H]1O[C@@H](CO)[C@@H](O)[C@H](O)[C@@H]1O[C@H]1O[C@H](CO)[C@@H](O)[C@H](OC(N)=O)[C@@H]1O)c1cnc[nH]1 [Zeocin, zeocin]
growth of Thraustochytrium sp. ONC-T18 (antibiotic 10 μg/mL medium): +++
growth of Thraustochytrium sp. ONC-T18 (antibiotic 30 μg/mL medium): ++
growth of Thraustochytrium sp. ONC-T18 (antibiotic 50 μg/mL medium): +
